Assay [1] has as its target T1, self-assembling peptide nanofibers (peptide sequence AcN-…-CNH2).
T1 sequence (peptide, N-terminal acetyl and C-terminal amide, printed as AcN-...-CNH2): RARADADARARADADA
In words: 100 ng protein embedded in NFs, incubated in PBS 3 h at 37 C, Bradford assay of the supernatant; BSA is the weaker comparator.

Protein sequences, listed by entry. Tags and fused reporters are not part of them. Residues count along the entry.
UniProt P02769, residues 25-607: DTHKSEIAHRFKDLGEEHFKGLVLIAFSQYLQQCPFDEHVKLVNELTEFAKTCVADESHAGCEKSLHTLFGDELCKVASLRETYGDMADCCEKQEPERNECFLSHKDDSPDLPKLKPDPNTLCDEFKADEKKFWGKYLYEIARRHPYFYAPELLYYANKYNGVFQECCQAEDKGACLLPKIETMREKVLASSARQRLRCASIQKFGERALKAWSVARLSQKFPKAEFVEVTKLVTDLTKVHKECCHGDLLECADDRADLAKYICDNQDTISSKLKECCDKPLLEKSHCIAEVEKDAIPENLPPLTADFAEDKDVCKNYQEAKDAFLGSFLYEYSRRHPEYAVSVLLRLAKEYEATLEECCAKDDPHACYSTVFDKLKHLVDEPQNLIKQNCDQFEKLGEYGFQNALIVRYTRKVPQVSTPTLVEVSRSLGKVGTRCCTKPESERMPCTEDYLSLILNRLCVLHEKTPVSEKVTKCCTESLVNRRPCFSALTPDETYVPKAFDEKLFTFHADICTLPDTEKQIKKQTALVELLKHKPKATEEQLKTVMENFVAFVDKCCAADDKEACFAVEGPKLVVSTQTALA
UniProt P01127, residues 82-190: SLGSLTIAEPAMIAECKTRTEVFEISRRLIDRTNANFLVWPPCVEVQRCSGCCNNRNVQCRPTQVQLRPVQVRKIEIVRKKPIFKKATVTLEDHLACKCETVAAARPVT

Assay [2] has the same target. In words: protein embedded in NFs, in vitro binding.

Results are given in words; binding and its absence hold for the method and conditions named. Some binding calls cover weakened binding; strength is not graded here.

Regarding “BSA (Sigma-Aldrich) (from UniProt P02769 25-607)”, the binding entry in assay [1] is “binds”.

Take “human PDGF-BB (PeproTech) (from UniProt P01127 82-190) (ligand)”: the binding entry in assay [2] is given as “binds”.

These data come from patent US20060148703A1.
